No constants are given. Whether binding was seen depends on the method and setting. Binding seen in cells or lysates may run through a third protein. Some results given as binding are weak or reduced against the parent protein; the word gives no strength. One block for each molecule: values may come before it.
Columns and labels:
[1] = target: T1, SH3RF3 (SH3 domain containing ring finger 3) (UniProt Q8TEJ3); assay: co-IP; 293T cells transfected with overexpression plasmids 48 h before; lysate with control IgG or immunoprecipitating antibody overnight at 4 °C, protein A/G agarose beads 2 h, five washes with lysis buffer, Western blot; reciprocal
T1 sequence: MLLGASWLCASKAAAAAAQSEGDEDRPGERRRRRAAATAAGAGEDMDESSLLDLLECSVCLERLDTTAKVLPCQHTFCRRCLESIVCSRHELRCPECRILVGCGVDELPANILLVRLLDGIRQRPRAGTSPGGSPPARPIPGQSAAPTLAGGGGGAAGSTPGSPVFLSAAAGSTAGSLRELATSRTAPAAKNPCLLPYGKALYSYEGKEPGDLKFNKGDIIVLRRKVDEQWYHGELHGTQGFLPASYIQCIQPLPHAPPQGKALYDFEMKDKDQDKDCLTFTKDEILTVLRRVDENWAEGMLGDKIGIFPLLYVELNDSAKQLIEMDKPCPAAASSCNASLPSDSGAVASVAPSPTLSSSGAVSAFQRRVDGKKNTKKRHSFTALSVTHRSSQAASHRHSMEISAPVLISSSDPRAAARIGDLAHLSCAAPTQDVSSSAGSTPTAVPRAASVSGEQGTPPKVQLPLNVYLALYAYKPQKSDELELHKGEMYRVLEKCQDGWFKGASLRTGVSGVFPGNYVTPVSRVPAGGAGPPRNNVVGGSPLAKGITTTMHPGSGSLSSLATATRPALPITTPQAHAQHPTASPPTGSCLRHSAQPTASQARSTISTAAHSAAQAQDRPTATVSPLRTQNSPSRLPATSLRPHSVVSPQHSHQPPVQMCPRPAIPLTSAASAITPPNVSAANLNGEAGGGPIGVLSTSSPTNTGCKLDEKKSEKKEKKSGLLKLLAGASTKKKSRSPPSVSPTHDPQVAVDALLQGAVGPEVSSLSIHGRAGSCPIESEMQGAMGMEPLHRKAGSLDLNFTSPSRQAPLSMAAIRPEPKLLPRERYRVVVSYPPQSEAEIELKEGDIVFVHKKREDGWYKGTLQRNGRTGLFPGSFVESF

The chains behind the UniProt entries cited, without tags or fusion partners.
UniProt Q9UQF2: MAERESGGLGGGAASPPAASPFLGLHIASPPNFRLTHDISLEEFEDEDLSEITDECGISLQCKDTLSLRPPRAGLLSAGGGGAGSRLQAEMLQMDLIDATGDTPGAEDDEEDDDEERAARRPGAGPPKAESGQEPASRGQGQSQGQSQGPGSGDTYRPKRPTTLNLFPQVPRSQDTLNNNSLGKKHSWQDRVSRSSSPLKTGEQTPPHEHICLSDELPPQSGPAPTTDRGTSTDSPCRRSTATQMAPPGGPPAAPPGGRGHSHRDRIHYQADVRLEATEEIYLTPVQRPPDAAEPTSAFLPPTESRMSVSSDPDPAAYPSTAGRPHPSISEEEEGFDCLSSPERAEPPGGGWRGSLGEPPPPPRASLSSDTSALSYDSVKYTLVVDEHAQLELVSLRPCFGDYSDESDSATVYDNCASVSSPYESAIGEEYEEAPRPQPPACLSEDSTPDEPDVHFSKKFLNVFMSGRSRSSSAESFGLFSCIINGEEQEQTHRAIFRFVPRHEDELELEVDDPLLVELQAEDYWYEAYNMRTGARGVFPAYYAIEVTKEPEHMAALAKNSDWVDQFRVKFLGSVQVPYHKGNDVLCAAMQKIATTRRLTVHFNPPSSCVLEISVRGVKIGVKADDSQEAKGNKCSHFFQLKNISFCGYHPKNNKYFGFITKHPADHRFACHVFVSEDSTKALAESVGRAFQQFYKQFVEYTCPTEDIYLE
UniProt O14733: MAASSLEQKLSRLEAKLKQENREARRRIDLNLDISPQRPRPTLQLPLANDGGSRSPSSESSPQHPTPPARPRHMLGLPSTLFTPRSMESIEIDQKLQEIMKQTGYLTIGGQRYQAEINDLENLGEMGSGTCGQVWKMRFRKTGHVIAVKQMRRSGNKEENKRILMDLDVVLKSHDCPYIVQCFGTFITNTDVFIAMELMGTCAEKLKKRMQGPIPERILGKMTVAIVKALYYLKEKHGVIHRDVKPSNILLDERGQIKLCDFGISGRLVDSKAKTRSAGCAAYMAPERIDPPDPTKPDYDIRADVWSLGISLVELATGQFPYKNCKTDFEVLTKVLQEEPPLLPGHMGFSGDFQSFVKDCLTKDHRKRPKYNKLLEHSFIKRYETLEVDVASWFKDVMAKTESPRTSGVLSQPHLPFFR

[2] = target: T2, JIP3 (UniProt Q9UPT6); assay: co-IP; sequential co-IP of SH3RF3, JIP3 and MKK7 in 293T cells
T2 sequence: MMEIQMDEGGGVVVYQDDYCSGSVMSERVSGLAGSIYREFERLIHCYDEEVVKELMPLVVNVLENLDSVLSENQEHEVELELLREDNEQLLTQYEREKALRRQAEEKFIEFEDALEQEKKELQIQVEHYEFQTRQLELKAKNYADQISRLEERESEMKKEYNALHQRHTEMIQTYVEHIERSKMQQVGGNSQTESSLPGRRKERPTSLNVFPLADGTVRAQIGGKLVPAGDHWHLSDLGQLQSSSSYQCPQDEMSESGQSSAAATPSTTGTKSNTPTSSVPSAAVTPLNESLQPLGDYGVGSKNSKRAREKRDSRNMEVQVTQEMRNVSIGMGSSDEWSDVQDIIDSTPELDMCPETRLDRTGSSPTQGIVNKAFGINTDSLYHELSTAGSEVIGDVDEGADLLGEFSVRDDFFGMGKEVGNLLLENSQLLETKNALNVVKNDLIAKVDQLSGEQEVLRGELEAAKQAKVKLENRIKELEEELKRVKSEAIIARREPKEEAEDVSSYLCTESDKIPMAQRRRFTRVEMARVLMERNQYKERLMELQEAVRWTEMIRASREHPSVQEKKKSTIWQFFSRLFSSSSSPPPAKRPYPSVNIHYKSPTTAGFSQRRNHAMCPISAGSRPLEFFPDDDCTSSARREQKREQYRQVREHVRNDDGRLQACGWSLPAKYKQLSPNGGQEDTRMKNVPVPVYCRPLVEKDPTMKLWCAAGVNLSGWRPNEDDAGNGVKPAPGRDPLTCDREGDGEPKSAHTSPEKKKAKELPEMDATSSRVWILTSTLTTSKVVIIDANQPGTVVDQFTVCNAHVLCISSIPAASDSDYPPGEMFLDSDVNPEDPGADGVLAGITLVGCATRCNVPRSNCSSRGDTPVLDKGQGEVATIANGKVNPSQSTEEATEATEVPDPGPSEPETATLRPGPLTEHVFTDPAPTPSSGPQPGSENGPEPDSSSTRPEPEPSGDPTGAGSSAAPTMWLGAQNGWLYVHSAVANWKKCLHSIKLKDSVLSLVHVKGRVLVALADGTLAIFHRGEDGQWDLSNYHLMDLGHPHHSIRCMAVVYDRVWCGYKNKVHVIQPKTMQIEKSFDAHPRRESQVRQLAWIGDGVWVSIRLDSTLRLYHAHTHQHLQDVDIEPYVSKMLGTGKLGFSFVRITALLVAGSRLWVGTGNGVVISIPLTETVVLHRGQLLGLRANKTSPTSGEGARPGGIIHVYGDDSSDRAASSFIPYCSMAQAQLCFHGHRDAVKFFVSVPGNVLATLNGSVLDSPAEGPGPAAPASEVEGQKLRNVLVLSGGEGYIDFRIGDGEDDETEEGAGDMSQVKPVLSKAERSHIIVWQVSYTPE

[3] = target: T1, SH3RF3 (SH3 domain containing ring finger 3); assay: as above
[4] = target: T3, JIP3 in MCF10AT cells (human (endogenous in MCF10AT)) (UniProt Q9UPT6); assay: co-IP; MCF10AT cells; with or without SH3RF3 overexpression (JIP3 co-IPs); with or without JIP3 knockdown by two siRNAs (SH3RF3-JNK1/2 co-IP)
T3 sequence: T2 sequence

Molecule: JIP1 (from UniProt Q9UQF2 1-711)
binding [1]: binds

B2: JIP2 (protein, UniProt Q13387 1-824)
chain: MADRAEMFSLSTFHSLSPPGCRPPQDISLEEFDDEDLSEITDDCGLGLSYDSDHCEKDSLSLGRSEQPHPICSFQDDFQEFEMIDDNEEEDDEDEEEEEEEEEGDGEGQEGGDPGSEAPAPGPLIPSPSVEEPHKHRPTTLRLTTLGAQDSLNNNGGFDLVRPASWQETALCSPAPEALRELPGPLPATDTGPGGAQSPVRPGCDCEGNRPAEPPAPGGTSPSSDPGIEADLRSRSSGGRGGRRSSQELSSPGSDSEDAGGARLGRMISSISETELELSSDGGSSSSGRSSHLTNSIEEASSPASEPEPPREPPRRPAFLPVGPDDTNSEYESGSESEPDLSEDADSPWLLSNLVSRMISEGSSPIRCPGQCLSPAPRPPGEPVSPAGGAAQDSQDPEAAAGPGGVELVDMETLCAPPPPAPAAPRPGPAQPGPCLFLSNPTRDTITPLWAAPGRAARPGRACSAACSEEEDEEDDEEEEDAEDSAGSPGGRGTGPSAPRDASLVYDAVKYTLVVDEHTQLELVSLRRCAGLGHDSEEDSGGEASEEEAGAALLGGGQVSGDTSPDSPDLTFSKKFLNVFVNSTSRSSSTESFGLFSCLVNGEEREQTHRAVFRFIPRHPDELELDVDDPVLVEAEEDDFWFRGFNMRTGERGVFPAFYAHAVPGPAKDLLGSKRSPCWVERFDVQFLGSVEVPCHQGNGILCAAMQKIATARKLTVHLRPPASCDLEISLRGVKLSLSGGGPEFQRCSHFFQMKNISFCGCHPRNSCYFGFITKHPLLSRFACHVFVSQESMRPVAQSVGRAFLEYYQEHLAYACPTEDIYLE
binding [1]: binds

B3: MAP kinase kinase 4 (MKK4) (enzyme, UniProt P45985 1-399)
chain: MAAPSPSGGGGSGGGSGSGTPGPVGSPAPGHPAVSSMQGKRKALKLNFANPPFKSTARFTLNPNPTGVQNPHIERLRTHSIESSGKLKISPEQHWDFTAEDLKDLGEIGRGAYGSVNKMVHKPSGQIMAVKRIRSTVDEKEQKQLLMDLDVVMRSSDCPYIVQFYGALFREGDCWICMELMSTSFDKFYKYVYSVLDDVIPEEILGKITLATVKALNHLKENLKIIHRDIKPSNILLDRSGNIKLCDFGISGQLVDSIAKTRDAGCRPYMAPERIDPSASRQGYDVRSDVWSLGITLYELATGRFPYPKWNSVFDQLTQVVKGDPPQLSNSEEREFSPSFINFVNLCLTKDESKRPKYKELLKHPFILMYEERAVEVACYVCKILDQMPATPSSPMYVD
binding [1]: binds

Continued, values first:

binding [2]: binds
binding [3]: binds
binding [1]: binds
Molecule: MAP kinase kinase 7 (MKK7) (from UniProt O14733 1-419) (enzyme)

binding [4]: binds
Molecule: JNK2 in MCF10AT cells (from UniProt P45984 1-424) (enzyme)

binding [4]: binds
Molecule: MKK7 in MCF10AT cells (from UniProt O14733 1-419) (enzyme)

binding [3]: binds
binding [1]: binds
B1: JIP3 (protein, UniProt Q9UPT6 1-1336)
chain: T2 sequence

Source: PMC7237486
